Experimental data as given in patent US20170266222A1, “MODULATION OF CHRFAM7A FOR ANTI-INFLAMMATORY THERAPIES” (THE REGENTS OF THE UNIVERSITY OF CALIFORNIA, priority 2016, published 2017).
These are yes or no findings as the source states them, for the method shown. Some entries that bind do so weakly or less than the wild type.

By UniProt entry, the sequences of proteins in these tests, tags left out. Residues count along the entry.
UniProt P36544, residues 23-502: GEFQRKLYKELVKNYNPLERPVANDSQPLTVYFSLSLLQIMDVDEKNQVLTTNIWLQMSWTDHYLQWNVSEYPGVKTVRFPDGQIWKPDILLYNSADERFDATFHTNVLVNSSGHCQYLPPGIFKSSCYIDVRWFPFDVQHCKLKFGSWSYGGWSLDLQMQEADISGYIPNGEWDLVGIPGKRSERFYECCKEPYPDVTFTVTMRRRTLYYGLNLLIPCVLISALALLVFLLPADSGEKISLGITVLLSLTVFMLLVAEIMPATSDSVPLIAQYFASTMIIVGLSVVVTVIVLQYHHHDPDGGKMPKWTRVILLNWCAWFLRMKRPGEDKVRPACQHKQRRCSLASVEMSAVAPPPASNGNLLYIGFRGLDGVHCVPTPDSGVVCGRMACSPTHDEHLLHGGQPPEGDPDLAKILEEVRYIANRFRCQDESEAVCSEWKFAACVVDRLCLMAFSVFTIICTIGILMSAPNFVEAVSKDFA
UniProt P60615, residues 22-95: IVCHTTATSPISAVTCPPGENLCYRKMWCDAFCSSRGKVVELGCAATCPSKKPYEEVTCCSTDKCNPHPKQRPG

Key:
[1] = molecular target: α7-nicotinic acetylcholine receptor (α7nAChR) encoded by CHRNA7, on human THP1 cells (human) (UniProt P36544); assay: flow cytometry, labeled bungarotoxin on fixed parental THP1 cells
[2] = molecular target: α7-nicotinic acetylcholine receptor (α7nAChR) encoded by CHRNA7, on human THP1 cells (human) (UniProt P36544); assay: flow cytometry, labeled bungarotoxin on parental THP1 cells (FIG. 4C)
[3] = molecular target: α7-nicotinic acetylcholine receptor (α7nAChR) encoded by CHRNA7, on human THP1 cells (human) (UniProt P36544); assay: flow cytometry, labeled bungarotoxin on CHRFAM7A-transduced THP1 cells

Measured: binding

labeled bungarotoxin (from UniProt P60615 22-95) (ligand)
binds: all assays above
